Experimental data taken from the supplement of paper PMC8728848.
Some of the results follow.

Columns and labels:
Assay in all cases: glycan array binding signal (z-score within array); higher = stronger binding
Details in all cases: glycan notation: IUPAC condensed, linker removed
[1] = target: GlcNAc(a1-6)Gal(b1-4)GlcNAc
How it was run: (§1)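 Glycan array binding is given as a within-array Z-score, which can be read as non-binding when negative. The arrays, 3228 of them, came from the Consortium for Functional Glycomics database and were retained only where the protein sequence was available. Z-scores were averaged across arrays of the same protein sequence at different concentrations or buffers and across linkers.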

[2] = target: GlcNAc(b1-2)Gal(b1-3)GalNAc
How it was run: as §1

[3] = target: GlcNAc(b1-2)Man(a1-3)[GlcNAc(b1-2)Man(a1-6)]Man(b1-4)GlcNAc(b1-4)GlcNAc
How it was run: as §1

[4] = target: GlcNAc(b1-2)Man(a1-3)[GlcNAc(b1-2)Man(a1-6)]Man(b1-4)GlcNAc(b1-4)[Fuc(a1-6)]GlcNAc
How it was run: as §1

[5] = target: GlcNAc(b1-2)Man(a1-3)[GlcNAc(b1-4)][GlcNAc(b1-2)Man(a1-6)]Man(b1-4)GlcNAc(b1-4)GlcNAc
How it was run: as §1

[6] = target: GlcNAc(b1-2)Man(a1-3)[GlcNAc(b1-4)][GlcNAc(b1-2)Man(a1-6)]Man(b1-4)GlcNAc(b1-4)[Fuc(a1-6)]GlcNAc
How it was run: as §1

[7] = target: GlcNAc(b1-2)[GlcNAc(b1-4)]Man(a1-3)[GlcNAc(b1-2)Man(a1-6)]Man(b1-4)GlcNAc(b1-4)GlcNAc
How it was run: as §1

[8] = target: GlcNAc(b1-2)[GlcNAc(b1-4)]Man(a1-3)[GlcNAc(b1-4)][GlcNAc(b1-2)Man(a1-6)]Man(b1-4)GlcNAc(b1-4)GlcNAc
How it was run: as §1

[9] = target: GlcNAc(b1-2)[GlcNAc(b1-4)]Man(a1-3)[GlcNAc(b1-4)][GlcNAc(b1-2)[GlcNAc(b1-6)]Man(a1-6)]Man(b1-4)GlcNAc(b1-4)GlcNAc
How it was run: as §1

[10] = target: GlcNAc(b1-2)[GlcNAc(b1-4)]Man(a1-3)[GlcNAc(b1-4)][GlcNAc(b1-2)[GlcNAc(b1-6)]Man(a1-6)]Man(b1-4)GlcNAc(b1-4)[Fuc(a1-6)]GlcNAc
How it was run: as §1

[11] = target: GlcNAc(b1-2)[GlcNAc(b1-6)]Man(a1-6)[GlcNAc(b1-2)Man(a1-3)]Man(b1-4)GlcNAc(b1-4)GlcNAc
How it was run: as §1

[12] = target: GlcNAc(b1-2)[GlcNAc(b1-6)]Man(a1-6)[GlcNAc(b1-2)Man(a1-3)]Man(b1-4)GlcNAc(b1-4)[Fuc(a1-6)]GlcNAc
How it was run: as §1

[13] = target: GlcNAc(b1-2)[GlcNAc(b1-6)]Man(a1-6)[GlcNAc(b1-4)][GlcNAc(b1-2)Man(a1-3)]Man(b1-4)GlcNAc(b1-4)GlcNAc
How it was run: as §1

[14] = target: GlcNAc(b1-3)Fuc
How it was run: as §1

[15] = target: GlcNAc(b1-3)Gal
How it was run: as §1

[16] = target: GlcNAc(b1-3)Gal(b1-3)GalNAc
How it was run: as §1

[17] = target: GlcNAc(b1-3)Gal(b1-4)Glc
How it was run: as §1

[18] = target: GlcNAc(b1-3)Gal(b1-4)GlcNAc
How it was run: as §1

[19] = target: GlcNAc(b1-3)Gal(b1-4)GlcNAc(b1-2)Man(a1-3)[GlcNAc(b1-3)Gal(b1-4)GlcNAc(b1-2)Man(a1-6)]Man(b1-4)GlcNAc(b1-4)GlcNAc
How it was run: as §1

[20] = target: GlcNAc(b1-3)Gal(b1-4)GlcNAc(b1-2)Man(a1-3)[GlcNAc(b1-3)Gal(b1-4)GlcNAc(b1-2)Man(a1-6)]Man(b1-4)GlcNAc(b1-4)[Fuc(a1-6)]GlcNAc
How it was run: as §1

[21] = target: GlcNAc(b1-3)Gal(b1-4)GlcNAc(b1-2)[GlcNAc(b1-3)Gal(b1-4)GlcNAc(b1-6)]Man(a1-6)[GlcNAc(b1-3)Gal(b1-4)GlcNAc(b1-2)Man(a1-3)]Man(b1-4)GlcNAc(b1-4)GlcNAc
How it was run: as §1

[22] = target: GlcNAc(b1-3)Gal(b1-4)GlcNAc(b1-3)Gal(b1-4)GlcNAc
How it was run: as §1

[23] = target: GlcNAc(b1-3)Gal(b1-4)GlcNAc(b1-3)Gal(b1-4)GlcNAc(b1-2)Man(a1-3)[GlcNAc(b1-3)Gal(b1-4)GlcNAc(b1-3)Gal(b1-4)GlcNAc(b1-2)Man(a1-6)]Man(b1-4)GlcNAc(b1-4)GlcNAc
How it was run: as §1

[24] = target: GlcNAc(b1-3)Gal(b1-4)GlcNAc(b1-3)Gal(b1-4)GlcNAc(b1-2)Man(a1-3)[GlcNAc(b1-3)Gal(b1-4)GlcNAc(b1-3)Gal(b1-4)GlcNAc(b1-2)Man(a1-6)]Man(b1-4)GlcNAc(b1-4)[Fuc(a1-6)]GlcNAc
How it was run: as §1

[25] = target: GlcNAc(b1-3)Gal(b1-4)GlcNAc(b1-3)Gal(b1-4)GlcNAc(b1-2)[GlcNAc(b1-3)Gal(b1-4)GlcNAc(b1-3)Gal(b1-4)GlcNAc(b1-6)]Man(a1-6)[GlcNAc(b1-3)Gal(b1-4)GlcNAc(b1-3)Gal(b1-4)GlcNAc(b1-2)Man(a1-3)]Man(b1-4)GlcNAc(b1-4)[Fuc(a1-6)]GlcNAc
How it was run: as §1

[26] = target: GlcNAc(b1-3)Gal(b1-4)GlcNAc(b1-3)Gal(b1-4)GlcNAc(b1-3)Gal(b1-4)GlcNAc(b1-2)Man(a1-3)[GlcNAc(b1-3)Gal(b1-4)GlcNAc(b1-3)Gal(b1-4)GlcNAc(b1-3)Gal(b1-4)GlcNAc(b1-2)Man(a1-6)]Man(b1-4)GlcNAc(b1-4)GlcNAc
How it was run: as §1

[27] = target: GlcNAc(b1-3)Gal(b1-4)GlcNAc(b1-3)Gal(b1-4)GlcNAc(b1-3)Gal(b1-4)GlcNAc(b1-2)Man(a1-3)[GlcNAc(b1-3)Gal(b1-4)GlcNAc(b1-3)Gal(b1-4)GlcNAc(b1-3)Gal(b1-4)GlcNAc(b1-2)Man(a1-6)]Man(b1-4)GlcNAc(b1-4)[Fuc(a1-6)]GlcNAc
How it was run: as §1

[28] = target: GlcNAc(b1-3)Gal(b1-4)GlcNAc(b1-3)Gal(b1-4)GlcNAc(b1-3)Gal(b1-4)GlcNAc(b1-2)[GlcNAc(b1-3)Gal(b1-4)GlcNAc(b1-3)Gal(b1-4)GlcNAc(b1-3)Gal(b1-4)GlcNAc(b1-6)]Man(a1-6)[GlcNAc(b1-3)Gal(b1-4)GlcNAc(b1-3)Gal(b1-4)GlcNAc(b1-3)Gal(b1-4)GlcNAc(b1-2)Man(a1-3)]Man(b1-4)GlcNAc(b1-4)[Fuc(a1-6)]GlcNAc
How it was run: as §1

[29] = target: GlcNAc(b1-3)Gal(b1-4)GlcNAc(b1-3)Gal(b1-4)GlcNAc(b1-3)Gal(b1-4)GlcNAc(b1-3)Gal(b1-4)GlcNAc(b1-2)Man(a1-3)[GlcNAc(b1-3)Gal(b1-4)GlcNAc(b1-3)Gal(b1-4)GlcNAc(b1-3)Gal(b1-4)GlcNAc(b1-3)Gal(b1-4)GlcNAc(b1-2)Man(a1-6)]Man(b1-4)GlcNAc(b1-4)GlcNAc
How it was run: as §1

[30] = target: GlcNAc(b1-3)Gal(b1-4)GlcNAc(b1-3)Gal(b1-4)GlcNAc(b1-3)Gal(b1-4)GlcNAc(b1-3)Gal(b1-4)GlcNAc(b1-2)Man(a1-3)[GlcNAc(b1-3)Gal(b1-4)GlcNAc(b1-3)Gal(b1-4)GlcNAc(b1-3)Gal(b1-4)GlcNAc(b1-3)Gal(b1-4)GlcNAc(b1-2)Man(a1-6)]Man(b1-4)GlcNAc(b1-4)[Fuc(a1-6)]GlcNAc
How it was run: as §1

[31] = target: GlcNAc(b1-3)Gal(b1-4)GlcNAc(b1-3)Gal(b1-4)GlcNAc(b1-3)Gal(b1-4)GlcNAc(b1-3)Gal(b1-4)GlcNAc(b1-2)[GlcNAc(b1-3)Gal(b1-4)GlcNAc(b1-3)Gal(b1-4)GlcNAc(b1-3)Gal(b1-4)GlcNAc(b1-3)Gal(b1-4)GlcNAc(b1-6)]Man(a1-6)[GlcNAc(b1-3)Gal(b1-4)GlcNAc(b1-3)Gal(b1-4)GlcNAc(b1-3)Gal(b1-4)GlcNAc(b1-3)Gal(b1-4)GlcNAc(b1-2)Man(a1-3)]Man(b1-4)GlcNAc(b1-4)[Fuc(a1-6)]GlcNAc
How it was run: as §1

[32] = target: GlcNAc(b1-3)Gal(b1-4)GlcNAc(b1-3)Gal(b1-4)GlcNAc(b1-3)GalNAc
How it was run: as §1

[33] = target: GlcNAc(b1-3)Gal(b1-4)GlcNAc(b1-3)GalNAc
How it was run: as §1

[34] = target: GlcNAc(b1-3)Gal(b1-4)GlcNAc(b1-3)[GlcNAc(b1-3)Gal(b1-4)GlcNAc(b1-3)]GalNAc
How it was run: as §1

[35] = target: GlcNAc(b1-3)Gal(b1-4)GlcNAc(b1-6)[Gal(b1-3)]GalNAc
How it was run: as §1

[36] = target: GlcNAc(b1-3)Gal(b1-4)GlcNAc(b1-6)[GlcNAc(b1-3)Gal(b1-3)]GalNAc
How it was run: as §1

[37] = target: GlcNAc(b1-3)Gal(b1-4)GlcNAc(b1-6)[GlcNAc(b1-3)]Gal(b1-4)GlcNAc
How it was run: as §1

[38] = target: GlcNAc(b1-3)GalNAc
How it was run: as §1

[39] = target: GlcNAc(b1-3)Man
How it was run: as §1

[40] = target: GlcNAc(b1-3)[GlcNAc(b1-4)][GlcNAc(b1-6)]GlcNAc
How it was run: as §1

[41] = target: GlcNAc(b1-3)[GlcNAc(b1-6)]Gal(b1-4)GlcNAc
How it was run: as §1

[42] = target: GlcNAc(b1-3)[GlcNAc(b1-6)]GalNAc
How it was run: as §1

[43] = target: GlcNAc(b1-4)Gal(b1-4)GlcNAc
How it was run: as §1

[44] = target: GlcNAc(b1-4)GlcNAc
How it was run: as §1

[45] = target: GlcNAc(b1-4)GlcNAc(b1-4)GlcNAc
How it was run: as §1

B1: Ovorubin (Pomacea canaliculata), J7I2T6 (protein)
chain: MFVATSLLLAIATLVVRASPHNYLIMDIEPPKSVSERDILNLLSPLQVKHSFRVTGSTRLLIVIRLDAQSYEKLDEITVPGKVEVIPAVNMADTMERCGVSWPRVELTDDNVTLFESESTLTDVTKEQLKAMLIGYGEHMSGLLQAHRFEYYQAAGATPHRHFVFVNSVPDEIEVFGREGVDIWGGPGEFVVKPQYVTRI
glycan array binding signal (z-score) [1]: -0.021
glycan array binding signal (z-score) [2]: -0.27
glycan array binding signal (z-score) [3]: -0.394
glycan array binding signal (z-score) [4]: -0.475
glycan array binding signal (z-score) [5]: 0.341
glycan array binding signal (z-score) [6]: -0.306
glycan array binding signal (z-score) [7]: -0.409
glycan array binding signal (z-score) [8]: -0.909
glycan array binding signal (z-score) [9]: -0.864
glycan array binding signal (z-score) [10]: -0.233
glycan array binding signal (z-score) [11]: 0.175
glycan array binding signal (z-score) [12]: 0.695
glycan array binding signal (z-score) [13]: -0.795
glycan array binding signal (z-score) [14]: -0.308
glycan array binding signal (z-score) [15]: -0.617
glycan array binding signal (z-score) [16]: 0.167
glycan array binding signal (z-score) [17]: 0.458
glycan array binding signal (z-score) [18]: -0.34
glycan array binding signal (z-score) [19]: -0.39
glycan array binding signal (z-score) [20]: 0.415
glycan array binding signal (z-score) [21]: 0.637
glycan array binding signal (z-score) [22]: -0.391
glycan array binding signal (z-score) [23]: -0.167
glycan array binding signal (z-score) [24]: 2.03
glycan array binding signal (z-score) [25]: -0.363
glycan array binding signal (z-score) [26]: -0.748
glycan array binding signal (z-score) [27]: 0.384
glycan array binding signal (z-score) [28]: 0.298
glycan array binding signal (z-score) [29]: 0.683
glycan array binding signal (z-score) [30]: -0.24
glycan array binding signal (z-score) [31]: 0.519
glycan array binding signal (z-score) [32]: 0.396
glycan array binding signal (z-score) [33]: -0.113
glycan array binding signal (z-score) [34]: 0.421
glycan array binding signal (z-score) [35]: -0.746
glycan array binding signal (z-score) [36]: 1.27
glycan array binding signal (z-score) [37]: -0.444
glycan array binding signal (z-score) [38]: -0.73
glycan array binding signal (z-score) [39]: -0.105
glycan array binding signal (z-score) [40]: 7.53
glycan array binding signal (z-score) [41]: -0.225
glycan array binding signal (z-score) [42]: -0.458
glycan array binding signal (z-score) [43]: -0.169
glycan array binding signal (z-score) [44]: -0.358
glycan array binding signal (z-score) [45]: -0.641
